This passage reports AC50 results from PubChem BioAssay AID463205 (Broad Institute, 2010).

About 20 (0.8%) of roughly 2,400 compounds were called active.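 The calls were made as follows: active = AC50 no more than ten times the highest tested concentration, or full inhibition at every dose giving a flat fit (cut at about 30 µM in these data); inconclusive = flat fit with activity between 30% and 70%, or poor-quality invalid fit; inactive = AC50 more than ten times the top tested dose.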 This is one part of the list.

A short description of the assay: inhibitors of ADP-Glo detection reagents, dose response, artefact control for GSK-3a inhibitor project, biochemical, luminescence, cell-free, homogeneous (AID 463205).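 Also: kinase-free counter-screen against the ADP-Glo detection reagents only; potency is for inhibitors that reduce the luminescence signal.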 Particulars: 5 uM ADP. For orientation: In ADP-Glo the light output rises with the ADP produced.
What is called AC50 is the concentration giving half of the maximal activity seen. Turning to `COc1ccc(/C=N/NC(=O)c2nnn(-c3nonc3N)c2-c2cccs2)c(OC)c1`, the AC50 was inactive: > 30 µM. Take `CN1/C(=C\C=C2/SC(=S)NC2=O)C(C)(C)c2ccccc21`: the AC50 is inactive: > 30 µM.

Regarding `Cc1cccc(NC(=O)CSCc2nc3c(nnn3Cc3ccc(F)cc3)c(=O)[nH]2)c1C`, the AC50 is inactive: > 30 µM. Consider `COc1ccc(C2CC(=O)Nc3n[nH]c(-c4ccccc4)c32)cc1OC` (configuration not stated), for which the AC50 was inactive: > 30 µM. With `Cc1cccc(NC(=O)COC(=O)c2ccccn2)c1` the figure was inactive: > 30 µM.

In the case of `COc1ccc2nc(NC(=O)CSc3nnc(-c4ccoc4C)n3C)sc2c1`, the AC50 was inactive: > 30 µM. On to `N#Cc1c(C#N)c(-c2ccccc2)n(-c2ccc(C(=O)O)cc2)c1N`, for which the AC50 was inactive: > 30 µM. Consider `Cc1ccc(N(Cc2ccc([N+](=O)[O-])cc2)C(=O)c2ccco2)cc1C`, for which the AC50 is inactive: > 30 µM. With `CS(=O)(=O)Nc1ccc(-c2ccc(/C=C3\SC(N)=NC3=O)o2)cc1` the figure was inactive: > 30 µM. The value for `O=C(O)c1cc2ncc(-c3[nH]ncc3[N+](=O)[O-])cn2n1` was inactive: > 30 µM; that for `Nc1ccc2c(c1)C(=O)c1ccccc1C2=O` was inactive: > 30 µM.

Regarding `COc1ccc(-c2nnc(SCC(=O)Nc3ccccc3OC)o2)cc1`, the AC50 was inactive: > 30 µM.

Regarding `O=C(Nc1ccc(C(=O)NC2CCCCC2)cc1)c1cccnc1`, the AC50 is inactive: > 30 µM. With `CCOc1ccc2ncc(S(=O)(=O)c3ccccc3)c(N3CCN(c4ccc(OC)cc4)CC3)c2c1`, the AC50 was inactive: > 30 µM. For the compound `CCOc1ccc(-c2ncncc2-c2ccc(OC)cc2)c(O)c1`, the AC50 is inactive: > 30 µM.

With `S=C(Nc1cccnc1)Nc1ccccn1`, the AC50 was inactive: > 30 µM.

For `COc1ccc(-c2csc3nc(C)nc(N4CCC(C)CC4)c23)cc1OC`, the AC50 was inactive: > 30 µM. Turning to `O=C1NC(=O)/C(=C/c2ccc(-c3cc(C(=O)O)ccc3Cl)o2)S1`, the AC50 is inactive: > 30 µM. With `NS(=O)(=O)c1ccc(N=Nc2ccc(=O)[nH]c2O)cc1` the figure was inactive: > 30 µM. As to `O=C(Oc1cccc(NC(=O)c2ccco2)c1)c1cccc(S(=O)(=O)N2CCCCC2)c1`, the AC50 was inactive: > 30 µM. Take `Cc1sc2ncnc(NCCCN3CCCC3=O)c2c1C`: the AC50 is inactive: > 30 µM. With `CCOC(=O)c1c(NC(=O)CN2C(=O)NC3(CCCCC3C)C2=O)sc(C)c1C` (configuration not stated) the figure was inactive: > 30 µM; with `O=S(=O)(Nc1ccccc1O)c1cccc2cccnc12`, inactive: > 30 µM. The value for `Nc1nc(N)nc(-c2cc(F)ccc2O)n1` was inactive: > 30 µM; that for `Cc1c(C(=O)OCCOC(C)C)[nH]c2c1C(=O)CC(c1ccco1)C2` (configuration not stated) was inactive: > 30 µM; that for `NS(=O)(=O)c1cccc(NC(=O)CSc2nnc(-c3ccccc3)o2)c1` was inactive: > 30 µM.

Regarding `NC(=O)c1cc([N+](=O)[O-])ccc1NCc1cccc([N+](=O)[O-])c1`, the AC50 is inactive: > 30 µM. The value for `CCOc1ccc(/C=N/NC(=O)c2nnn(-c3nonc3N)c2CN2CCC(C)CC2)cc1` was inactive: > 30 µM; that for `CC1CCCCC1NC(=O)C(=O)NCC1CCCO1` (configuration not stated) was inactive: > 30 µM.

Turning to `Cc1nnc(SCC(=O)N2c3ccccc3CC2C)s1` (configuration not stated), the AC50 was inactive: > 30 µM.

As for `CCc1ccc(NC(=S)NC(=O)CC(C)C)cc1`, the AC50 is inactive: > 30 µM.

With `O=c1cc(-c2ccccc2)[nH]n1-c1ccc([N+](=O)[O-])cc1`, the AC50 is inactive: > 30 µM. Regarding `C/C(CC(=O)Nc1ccc(Cl)cc1Cl)=N\NC(=O)C(=O)N1CCCC1`, the AC50 was inactive: > 30 µM. The value for `Cc1ccsc1C1C2=C(CC(C)(C)CC2=O)Nc2ncnn21` (configuration not stated) was inactive: > 30 µM; that for `Cc1ccc(Cn2nc(-c3ccccc3)nc2-c2ccccc2)cc1` was inactive: > 30 µM. Regarding `S=C(NCc1ccccc1)NCc1ccc2c(c1)OCO2`, the AC50 is inactive: > 30 µM.

`CCOC(=O)c1sc(N)c(C(N)=O)c1C`: the AC50 is inactive: > 30 µM.

Consider `COc1cc(CN2CCCN(C)CC2)c([N+](=O)[O-])cc1OC`, for which the AC50 is inactive: > 30 µM. With `O=C1c2ccccc2-c2onc3ccc(NCc4ccco4)c1c23` the figure was inactive: > 30 µM; with `CC1(C)Cc2cccc(C(=O)Nc3ccncc3)c2O1`, inactive: > 30 µM; with `COc1cccc(NC(=O)c2cnc[nH]2)c1`, inactive: > 30 µM.

In the case of `COc1ccc2cc(C(=O)NCc3ccco3)c(=O)oc2c1`, the AC50 is inactive: > 30 µM. The value for `CCCCSc1nc(C)[nH]c1[N+](=O)[O-]` was inactive: > 30 µM; that for `Cc1ccc(CSc2nnc(-c3cccnc3)o2)cc1` was inactive: > 30 µM; that for `Cc1ccc(Sc2ccc(NC(=O)CCl)cc2)cc1C` was inactive: > 30 µM. Turning to `CC(=O)Nc1ccc(NC(=O)CSc2nnc(-c3ccc4c(c3)OCO4)o2)cc1`, the AC50 is inactive: > 30 µM. The value for `CCN1CCN(c2nc(Nc3ccccc3F)nc(N)c2[N+](=O)[O-])CC1` was inactive: > 30 µM; that for `O=C(CNC(=O)c1ccccc1)N/N=C/C=C/c1ccccc1` was inactive: > 30 µM; that for `Clc1ccc(C2=Nn3c(nnc3-c3cccnc3)SC2)s1` was inactive: > 30 µM. With `Cc1c(C(=O)OC(C)C)[nH]c2c1C(=O)CC(C)(C)C2` the figure was inactive: > 30 µM.

For `CSc1ncccc1-c1nc2ccccc2[nH]1`, the AC50 was inactive: > 30 µM. Take `CCN(CC)CCCN(Cc1cc2cc3c(cc2[nH]c1=O)OCO3)C(=O)Nc1ccccc1OC`: the AC50 was inactive: > 30 µM. In the case of `CCOCCOC(=O)c1[nH]c2c(c1C)C(=O)CC(c1cc(OC)c(OC)c(OC)c1)C2` (configuration not stated), the AC50 is inactive: > 30 µM. Consider `CCCCc1cc(=O)oc2cc(O)ccc12`, for which the AC50 is inactive: > 30 µM. The value for `Cn1c(=O)c2[nH]c(CNc3ccc(C(=O)O)cc3)nc2n(C)c1=O` was inactive: > 30 µM; that for `Cc1cccc(-n2ncc(C#N)c2-n2cccc2)c1` was inactive: > 30 µM; that for `CC1=C(C(=O)OCc2ccc3c(c2)OCO3)C(c2ccccc2OCc2ccccc2)NC(=O)N1` (configuration not stated) was inactive: > 30 µM. The value for `Cn1c(SCc2nc(-c3ccc(Cl)cc3)no2)nnc1-c1ccccc1` was inactive: > 30 µM; that for `O=C(O)COc1ccc2c(c1)O/C(=C\c1cccs1)C2=O` was inactive: > 30 µM; that for `COc1ccc2[nH]c(=O)c3c(c2c1)OC(C)(C)C=C3` was inactive: > 30 µM. In the case of `COc1cc2c(C#N)c(N3CCCCC3)nc(N)c2c(N)n1`, the AC50 is inactive: > 30 µM. For the compound `CC1=C(C(=O)OCc2ccc3c(c2)OCO3)C(c2ccccc2)NC(=O)N1` (configuration not stated), the AC50 was inactive: > 30 µM. With `COc1ccc(C2NC(=O)NC(C)=C2C(=O)OCc2ccc3c(c2)OCO3)cc1OC` (configuration not stated) the figure was inactive: > 30 µM. Regarding `Cc1nc(SCC(=O)Nc2nc3ccccc3s2)n[nH]1`, the AC50 is inactive: > 30 µM. The value for `CC1=C(C(=O)OCc2ccc3c(c2)OCO3)C(c2cccc([N+](=O)[O-])c2)NC(=O)N1` (configuration not stated) was inactive: > 30 µM; that for `c1ccc(-c2nc3ccccc3[nH]2)cc1` was inactive: > 30 µM. The value for `CCN(C(=O)C1CCCN1S(=O)(=O)c1cccc2nsnc12)c1ccccc1` (configuration not stated) was inactive: > 30 µM; that for `Oc1ccc2oc3c(c2c1/C=N/n1cnnc1)CCCC3` was inactive: > 30 µM. With `Cc1ccc(Nc2nc(N)c([N+](=O)[O-])c(NCc3ccco3)n2)cc1C` the figure was inactive: > 30 µM. As to `COc1ccc(N=c2oc3c(OC)cccc3cc2C(=O)NCc2ccco2)cc1OC`, the AC50 was inactive: > 30 µM. The value for `O=C(COC(=O)c1cccc(S(=O)(=O)N2CCOCC2)c1)Nc1ncc(Cl)cc1Cl` was inactive: > 30 µM; that for `CC(C)CCNC(=O)CN(Cc1cccs1)C(=O)CCC(=O)Nc1nccs1` was inactive: > 30 µM. The value for `CCN(C(=O)CN1CCCCC1)c1c(N)n(Cc2ccccc2)c(=O)[nH]c1=O` was inactive: > 30 µM; that for `NCCNc1cc(N2CCCC2)ccc1[N+](=O)[O-]` was inactive: > 30 µM; that for `Nc1nonc1-n1nnc(C(=O)N/N=C/c2ccccc2Cl)c1-c1ccccc1` was inactive: > 30 µM. In the case of `CCOC(=O)c1c(NC(=O)CN2C(=O)NC3(CCCCC3C)C2=O)sc(C)c1CC` (configuration not stated), the AC50 was inactive: > 30 µM. The value for `Cc1cc(O)c2c(-c3ccccc3)cc(=O)oc2c1` was inactive: > 30 µM.

For the compound `CCOC(=O)c1[nH]c2c(c1-c1ccccc1)C(=O)CC(c1ccc(Cl)cc1)C2` (configuration not stated), the AC50 is inactive: > 30 µM.

Take `CC1CCN(Cc2c(C(=O)N/N=C/c3cccc(Cl)c3)nnn2-c2nonc2N)CC1`: the AC50 is inactive: > 30 µM. The value for `CC(=NCCCn1ccnc1)c1c(O)n(Cc2ccccc2)c(=O)[nH]c1=O` was inactive: > 30 µM. On to `Clc1cncc(Cl)c1N/N=C/c1ccncc1`, for which the AC50 was inactive: > 30 µM. With `COC(=O)C1CSc2[nH]c(=O)sc2C1c1ccc(O)c(OC)c1` (configuration not stated), the AC50 is inactive: > 30 µM. With `O=C(CSc1nc2ccccc2o1)Nc1nc2ccc(Br)cc2s1`, the AC50 is inactive: > 30 µM. On to `COc1ccc(-c2cc(NCc3ccccn3)n3ncnc3n2)cc1`, for which the AC50 was inactive: > 30 µM. In the case of `Clc1ccc(/C=N/Nc2ncnc3ccccc23)cc1Cl`, the AC50 is inactive: > 30 µM. For the compound `CC(=O)Nc1ccc(C2(c3ccc(NC(C)=O)cc3)NC(=O)c3ccccc32)cc1`, the AC50 was inactive: > 30 µM. With `Oc1ccc(-c2nc3ncccn3c2Nc2ccc3c(c2)OCO3)cc1` the figure was inactive: > 30 µM; with `O=C(NC1=NCCS1)c1ccc(Cl)cc1`, inactive: > 30 µM. Take `NC(=O)c1sc2nc3c(c(-c4ccco4)c2c1N)CCCC3`: the AC50 is inactive: > 30 µM. The value for `COc1ccc2c(c1)C(SCC(=O)NCc1ccccc1)CC(C)(C)O2` (configuration not stated) was inactive: > 30 µM; that for `NC(=O)[C@@H]1CCCNc2c(I)cc([N+](=O)[O-])cc2C(=O)N[C@@H](CCCN=C(N)N)C(=O)N[C@@H](CCCN=C(N)N)C(=O)N1` was inactive: > 30 µM. With `COc1ccc(-c2cc(C(F)(F)F)nc(SCCC(=O)NCc3ccccc3)n2)cc1` the figure was inactive: > 30 µM.
